The results in this text go back to US20240076361A1.

Amino acid sequences for entries named in this document (tags omitted). A change or cut given only in a name is not applied to a line headed by its entry. Chains listed by the source or under a name are the forms on record and can include a tag or linker.
Tau from human non-AD control brain lysate (Braak stage I) (P10636, form named): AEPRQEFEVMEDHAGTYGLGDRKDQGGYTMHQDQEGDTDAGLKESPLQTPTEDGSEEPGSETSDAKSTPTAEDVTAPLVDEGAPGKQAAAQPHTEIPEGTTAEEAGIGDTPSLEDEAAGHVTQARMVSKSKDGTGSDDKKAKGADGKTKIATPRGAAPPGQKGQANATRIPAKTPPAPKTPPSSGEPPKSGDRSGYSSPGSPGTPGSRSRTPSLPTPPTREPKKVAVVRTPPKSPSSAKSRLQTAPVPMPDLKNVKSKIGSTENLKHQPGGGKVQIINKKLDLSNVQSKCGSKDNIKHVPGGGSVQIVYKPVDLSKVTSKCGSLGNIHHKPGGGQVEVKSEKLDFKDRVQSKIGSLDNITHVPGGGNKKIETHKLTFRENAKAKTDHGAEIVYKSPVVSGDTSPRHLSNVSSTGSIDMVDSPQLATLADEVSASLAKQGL

The assay addresses Tau from human non-AD control brain lysate (Braak stage I) (human) (UniProt P10636). As to the kind of experiment: Western blot; 10 microgram brain lysate per lane, antibody 0.5 microgram/mL.

No constants are given. Whether binding was seen depends on the method and setting. Some entries that bind do so weakly or less than the wild type.

B1: 5F6-4B4 (antibody, mouse IgG2b, kappa, V domains shown)
VH: EVQLVESGGGLVKPGGSLKLSCVASGFSVSDYGIHWVRQAPEKGLEWVAYISSGSNTIYYIDTVKGRFTISRDNAKNTLFLQMTSLRSEDTAMYYCARRMAYWGQGTLVTVSA
VL: QIVLTQSPAIMSTSPGEKVTMTCSASSSVSSMYWYQQKPGSSPRLLIYATFNLASGVPVRFSGSGSGTSYSLTISRMEAEDAATYYCQQWSSYPLTFGAGTKLEVKR
On to B1, for which the binding result is “binds”.

B2: 5F6-4D1 (antibody, mouse IgG2b, kappa, V domains shown)
VH: B1 VH
VL: B1 VL
On to B2, for which the binding result is recorded as “binds”.
